Results as given in the supplement of paper PMC6078165.
The reference is the same well before dosing, and untreated signal decays as well.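 Labels refer to human fibroblasts, largely primary: uterine (C12385, HUF), lung (H6013), bone (Hs27A), adrenal (HADF), skin (WS1), plus mammary HMF and breast cancer-associated Hs343T. Cancer lines are basal-like or mesenchymal-like triple-negative breast cancer. The paper counts as hits responses shifting over 3x the replicate standard deviation. The tissue of the other fibroblasts is not given here.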

Tested on: MDAMB436
Assay: relative JC-1 red fluorescence (viability) vs pre-drug, coculture with fibroblast (fraction); higher = more viable cancer cells
Details: 0.1 µM
Procedure: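 JC-1 labelled TNBC cells cocultured 1:1 (1,500 cells each) with CellTrace Violet stained primary or stromal fibroblasts in 384-well plates in FluoroBrite medium, treated with one of 42 anticancer drugs at 0.1, 1, 10 or 100 uM. JC-1 red fluorescence (mitochondrial integrity in cancer cells only) was read by plate reader every 8 h for 72 h. Values are normalised to each well's pre-drug value. The stock of one drug was tenfold lower, so its dose labels may be too high.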

O=C(O)CCCc1ccc(N(CCCl)CCCl)cc1 [Chlorambucil]
relative JC-1 red fluorescence
Details | 8 h | 16 h | 24 h | 32 h | 40 h | 48 h | 56 h | 64 h | 72 h
coculture fibroblast: C12385 | 0.773 | 0.722 | 0.692 | 0.614 | 0.572 | 0.554 | 0.538 | 0.531 | 0.532
coculture fibroblast: H6013 | 0.793 | 0.761 | 0.74 | 0.73 | 0.71 | 0.727 | 0.695 | 0.681 | 0.64
coculture fibroblast: H6019 | 0.769 | 0.715 | 0.677 | 0.6004 | 0.5457 | 0.5218 | 0.4861 | 0.4534 | 0.4288
coculture fibroblast: H6076 | 0.81 | 0.759 | 0.756 | 0.72 | 0.719 | 0.704 | 0.718 | 0.7177 | 0.707
coculture fibroblast: H6231 | 0.7021 | 0.685 | 0.732 | 0.665 | 0.668 | 0.644 | 0.642 | 0.637 | 0.625
coculture fibroblast: HADF | 0.793 | 0.7368 | 0.6987 | 0.669 | 0.648 | 0.668 | 0.618 | 0.618 | 0.59
coculture fibroblast: HCFa | 0.778 | 0.748 | 0.724 | 0.696 | 0.671 | 0.691 | 0.627 | 0.622 | 0.572
coculture fibroblast: HCPF | 0.727 | 0.707 | 0.717 | 0.666 | 0.6751 | 0.66115 | 0.6557 | 0.6453 | 0.6493
coculture fibroblast: HHSteC | 0.824 | 0.819 | 0.818 | 0.786 | 0.795 | 0.818 | 0.771 | 0.752 | 0.706
coculture fibroblast: HMF | 0.712 | 0.677 | 0.687 | 0.66 | 0.677 | 0.655 | 0.68 | 0.668 | 0.676
coculture fibroblast: HPFa | 0.829 | 0.785 | 0.773 | 0.73 | 0.726 | 0.754 | 0.687 | 0.67 | 0.606
coculture fibroblast: HUF | 0.849 | 0.801 | 0.789 | 0.695 | 0.636 | 0.602 | 0.582 | 0.562 | 0.549
coculture fibroblast: Hs5 | 0.737 | 0.735 | 0.751 | 0.715 | 0.74 | 0.7157 | 0.754 | 0.7376 | 0.7322
coculture fibroblast: Hs27A | 0.797 | 0.7843 | 0.77957 | 0.7727 | 0.769 | 0.8369 | 0.748 | 0.741 | 0.67
coculture fibroblast: Hs343T | 0.742 | 0.6979 | 0.695 | 0.665 | 0.667 | 0.645 | 0.657 | 0.652 | 0.653
coculture fibroblast: WS1 | 0.769 | 0.703 | 0.672 | 0.598 | 0.566 | 0.55 | 0.536 | 0.516 | 0.505
